No constants are given. Whether binding was seen depends on the method and setting. Binding seen in cells or lysates may run through a third protein. Some binding calls cover weakened binding; strength is not graded here.
Biological target: 4R0N-tau (human) (UniProt P10636)
Assay: co-IP; lysates of tsA-201 cells co-transfected with CaVβ3 and either 4R0N- or 4R1N-tau; co-IP buffer 150 mM NaCl, 20 mM HEPES, 0.5% triton X-100, pH 7.4; mouse anti-tau (Sigma T9450) or control mouse IgG 1.5 h at 4 °C, Protein G sepharose; Western blot with anti-tau and anti-CaVβ3; band intensities normalised to input

Protein sequences, listed by entry. Tags and fused reporters are not part of them. Lines headed by an entry give the natural chain unless they say otherwise; changes in a name come on top. Chains listed by the source or under a name are the forms on record and can include a tag or linker.
4R0N-tau (P10636, form named): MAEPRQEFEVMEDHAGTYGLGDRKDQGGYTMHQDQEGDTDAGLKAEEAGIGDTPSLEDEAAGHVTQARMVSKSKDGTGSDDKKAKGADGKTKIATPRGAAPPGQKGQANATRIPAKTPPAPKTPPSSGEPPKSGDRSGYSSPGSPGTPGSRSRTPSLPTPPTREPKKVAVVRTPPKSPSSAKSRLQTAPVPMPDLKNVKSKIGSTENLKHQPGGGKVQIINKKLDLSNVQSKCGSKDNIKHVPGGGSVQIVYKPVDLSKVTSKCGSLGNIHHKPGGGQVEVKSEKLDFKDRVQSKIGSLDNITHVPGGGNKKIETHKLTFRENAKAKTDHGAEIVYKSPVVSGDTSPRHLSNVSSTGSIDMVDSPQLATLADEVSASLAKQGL

CaVβ3 subunit (from UniProt P54287 1-484)
binding: binds
